In the supplement of paper PMC10849652:
The other results are listed elsewhere or left out.

Amino acid sequences for entries named in this document (tags omitted). A change or cut given only in a name is not applied to a line headed by its entry.
UniProt Q9UDX5: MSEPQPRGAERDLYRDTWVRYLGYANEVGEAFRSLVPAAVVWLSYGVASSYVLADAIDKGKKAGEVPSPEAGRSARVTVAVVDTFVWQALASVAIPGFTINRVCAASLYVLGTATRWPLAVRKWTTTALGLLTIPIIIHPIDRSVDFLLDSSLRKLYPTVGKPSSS
UniProt Q96H55, whole entry, looked up: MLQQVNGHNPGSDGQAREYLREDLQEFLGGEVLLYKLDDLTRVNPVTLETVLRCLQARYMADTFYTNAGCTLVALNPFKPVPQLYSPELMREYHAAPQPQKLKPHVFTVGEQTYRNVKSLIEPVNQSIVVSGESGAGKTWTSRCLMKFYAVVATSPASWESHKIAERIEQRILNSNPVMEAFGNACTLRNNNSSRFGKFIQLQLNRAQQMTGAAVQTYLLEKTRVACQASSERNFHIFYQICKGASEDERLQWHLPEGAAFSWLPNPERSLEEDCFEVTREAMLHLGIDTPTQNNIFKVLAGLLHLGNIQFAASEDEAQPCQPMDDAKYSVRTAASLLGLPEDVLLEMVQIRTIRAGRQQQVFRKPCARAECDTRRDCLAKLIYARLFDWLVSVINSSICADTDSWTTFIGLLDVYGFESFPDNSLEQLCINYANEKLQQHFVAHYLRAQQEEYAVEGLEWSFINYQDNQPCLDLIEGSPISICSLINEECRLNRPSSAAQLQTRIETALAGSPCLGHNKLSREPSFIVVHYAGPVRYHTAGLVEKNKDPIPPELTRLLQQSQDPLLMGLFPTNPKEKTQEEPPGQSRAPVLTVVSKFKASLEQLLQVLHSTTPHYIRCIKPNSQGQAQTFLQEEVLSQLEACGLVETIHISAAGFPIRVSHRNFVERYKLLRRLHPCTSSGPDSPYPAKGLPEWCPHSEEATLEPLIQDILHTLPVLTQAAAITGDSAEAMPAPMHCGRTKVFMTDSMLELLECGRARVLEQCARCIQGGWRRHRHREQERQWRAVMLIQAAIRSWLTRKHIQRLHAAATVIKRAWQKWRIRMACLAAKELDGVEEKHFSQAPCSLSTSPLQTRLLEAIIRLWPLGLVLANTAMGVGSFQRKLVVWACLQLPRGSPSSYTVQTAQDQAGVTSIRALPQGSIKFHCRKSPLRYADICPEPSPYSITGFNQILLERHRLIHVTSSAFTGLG
UniProt Q9NZJ7, whole entry, looked up: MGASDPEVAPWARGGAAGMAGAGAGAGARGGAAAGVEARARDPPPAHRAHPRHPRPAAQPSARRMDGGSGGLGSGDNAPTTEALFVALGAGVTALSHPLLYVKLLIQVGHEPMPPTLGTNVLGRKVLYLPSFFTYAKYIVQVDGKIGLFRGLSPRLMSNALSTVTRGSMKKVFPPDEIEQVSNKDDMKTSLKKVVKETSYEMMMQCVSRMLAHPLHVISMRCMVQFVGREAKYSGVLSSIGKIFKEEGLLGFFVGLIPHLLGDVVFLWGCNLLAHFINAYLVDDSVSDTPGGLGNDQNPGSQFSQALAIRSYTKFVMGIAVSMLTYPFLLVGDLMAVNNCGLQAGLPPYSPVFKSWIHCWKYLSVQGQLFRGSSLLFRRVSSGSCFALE
UniProt Q15746, whole entry, looked up: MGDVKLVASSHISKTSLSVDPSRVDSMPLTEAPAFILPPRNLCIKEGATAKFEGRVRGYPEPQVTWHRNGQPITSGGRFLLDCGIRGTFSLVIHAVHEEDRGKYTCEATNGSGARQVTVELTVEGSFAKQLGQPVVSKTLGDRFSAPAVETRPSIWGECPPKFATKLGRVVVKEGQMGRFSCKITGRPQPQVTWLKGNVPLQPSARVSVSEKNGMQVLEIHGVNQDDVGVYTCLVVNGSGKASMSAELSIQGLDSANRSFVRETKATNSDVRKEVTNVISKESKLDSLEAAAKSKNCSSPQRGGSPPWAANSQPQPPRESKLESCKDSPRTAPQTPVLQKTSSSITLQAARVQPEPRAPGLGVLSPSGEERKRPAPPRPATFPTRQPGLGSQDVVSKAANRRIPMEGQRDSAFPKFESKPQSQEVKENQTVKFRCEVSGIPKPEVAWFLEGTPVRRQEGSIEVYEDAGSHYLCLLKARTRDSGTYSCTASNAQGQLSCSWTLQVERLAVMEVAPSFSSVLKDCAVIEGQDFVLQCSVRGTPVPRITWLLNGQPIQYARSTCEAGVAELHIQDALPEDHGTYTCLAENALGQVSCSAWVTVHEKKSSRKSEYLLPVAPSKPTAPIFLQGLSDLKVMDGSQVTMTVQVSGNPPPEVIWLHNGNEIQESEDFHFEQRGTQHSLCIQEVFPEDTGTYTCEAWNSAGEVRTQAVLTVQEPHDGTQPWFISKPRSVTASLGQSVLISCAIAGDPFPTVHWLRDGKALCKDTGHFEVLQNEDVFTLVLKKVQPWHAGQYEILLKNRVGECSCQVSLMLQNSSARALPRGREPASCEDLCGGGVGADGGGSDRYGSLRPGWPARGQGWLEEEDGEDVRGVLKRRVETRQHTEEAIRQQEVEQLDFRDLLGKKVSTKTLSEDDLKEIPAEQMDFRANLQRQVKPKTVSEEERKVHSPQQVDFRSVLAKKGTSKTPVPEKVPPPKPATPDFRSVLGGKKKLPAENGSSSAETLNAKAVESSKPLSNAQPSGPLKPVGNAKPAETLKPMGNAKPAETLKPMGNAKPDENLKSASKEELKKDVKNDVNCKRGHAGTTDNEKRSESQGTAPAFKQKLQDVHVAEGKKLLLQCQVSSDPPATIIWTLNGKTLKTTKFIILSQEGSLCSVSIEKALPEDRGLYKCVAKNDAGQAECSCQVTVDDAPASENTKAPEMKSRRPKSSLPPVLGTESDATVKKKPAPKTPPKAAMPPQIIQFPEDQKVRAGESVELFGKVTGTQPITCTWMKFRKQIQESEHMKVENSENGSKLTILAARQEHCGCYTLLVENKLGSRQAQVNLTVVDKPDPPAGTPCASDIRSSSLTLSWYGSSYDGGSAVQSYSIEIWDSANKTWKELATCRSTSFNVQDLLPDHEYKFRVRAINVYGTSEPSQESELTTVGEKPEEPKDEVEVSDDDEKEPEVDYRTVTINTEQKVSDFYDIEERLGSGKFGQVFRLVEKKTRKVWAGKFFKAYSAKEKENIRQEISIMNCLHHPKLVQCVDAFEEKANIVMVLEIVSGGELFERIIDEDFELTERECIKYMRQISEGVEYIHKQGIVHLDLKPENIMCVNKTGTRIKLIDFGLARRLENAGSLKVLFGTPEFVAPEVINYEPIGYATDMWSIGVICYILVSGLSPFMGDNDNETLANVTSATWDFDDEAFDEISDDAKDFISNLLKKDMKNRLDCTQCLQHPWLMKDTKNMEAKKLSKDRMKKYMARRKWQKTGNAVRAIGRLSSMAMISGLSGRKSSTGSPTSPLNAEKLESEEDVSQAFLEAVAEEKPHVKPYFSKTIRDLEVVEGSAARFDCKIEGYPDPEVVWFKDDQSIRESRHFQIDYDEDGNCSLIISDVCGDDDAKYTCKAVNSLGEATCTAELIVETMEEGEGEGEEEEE
UniProt P08590, whole entry, looked up: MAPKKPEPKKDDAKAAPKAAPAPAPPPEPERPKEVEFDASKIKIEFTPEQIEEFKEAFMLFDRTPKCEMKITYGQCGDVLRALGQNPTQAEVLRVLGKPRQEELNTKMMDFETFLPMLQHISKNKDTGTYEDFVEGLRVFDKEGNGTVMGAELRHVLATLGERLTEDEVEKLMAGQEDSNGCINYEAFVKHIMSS
UniProt Q68DK7: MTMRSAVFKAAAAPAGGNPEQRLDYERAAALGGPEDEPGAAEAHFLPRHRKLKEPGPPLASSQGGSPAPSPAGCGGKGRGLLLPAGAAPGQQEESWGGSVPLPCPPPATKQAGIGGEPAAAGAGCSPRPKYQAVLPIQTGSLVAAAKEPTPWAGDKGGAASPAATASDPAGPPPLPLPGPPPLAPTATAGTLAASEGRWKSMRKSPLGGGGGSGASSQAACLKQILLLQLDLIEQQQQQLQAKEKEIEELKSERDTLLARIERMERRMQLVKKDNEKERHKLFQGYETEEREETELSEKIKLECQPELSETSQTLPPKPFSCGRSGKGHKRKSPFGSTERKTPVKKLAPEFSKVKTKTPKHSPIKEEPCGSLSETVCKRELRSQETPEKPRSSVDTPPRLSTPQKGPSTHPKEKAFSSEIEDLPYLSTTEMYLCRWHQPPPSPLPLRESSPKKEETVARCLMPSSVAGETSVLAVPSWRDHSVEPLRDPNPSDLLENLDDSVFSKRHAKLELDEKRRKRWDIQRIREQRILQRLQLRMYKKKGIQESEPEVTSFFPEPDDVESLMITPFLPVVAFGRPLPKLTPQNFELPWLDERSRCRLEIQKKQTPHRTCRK

Experiments:
Assay in all cases: log2 fold change, soluble protein after heating vs DMSO (PISA); higher = thermal stabilisation; K562 cells, 10 uM, 30 min; active = over 0.2 and 3.5 SD of the protein, either way, in both replicates (recomputed)
bafetinib = compound: Cc1ccc(NC(=O)c2ccc(CN3CC[C@H](N(C)C)C3)c(C(F)(F)F)c2)cc1Nc1nccc(-c2cncnc2)n1 [bafetinib]
Method in brief: (§1)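 K562 cells at 2×10^6 cells/mL were exposed to 10 μM compound for 30 min, then aliquots were heated for 3 min across 48°C-58°C, pooled, and extracted in PBS containing 0.5% NP-40 at 4°C. The supernatant after 21,000xg for 90 min was taken as soluble protein and measured by TMTpro 16plex LC-MS/MS with channel sums equalised. Thermal stability is reported relative to control samples, with values from duplicates. Fold changes are given on a log2 scale.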

[1] = compound: Cc1cccc(CC(=O)N2CCc3c2ccc(-c2cn(C)c4ncnc(N)c24)c3F)n1
Method in brief: as §1

nilotinib = compound: Cc1cn(-c2cc(NC(=O)c3ccc(C)c(Nc4nccc(-c5cccnc5)n4)c3)cc(C(F)(F)F)c2)cn1 [nilotinib]
Method in brief: as §1

[2] = compound: Cc1nc(Nc2n[nH]c3c2CN(C(=O)N[C@H](CN(C)C)c2ccccc2)C3(C)C)c2sccc2n1
Method in brief: as §1

dasatinib = compound: Cc1nc(Nc2ncc(C(=O)Nc3c(C)cccc3Cl)s2)cc(N2CCN(CCO)CC2)n1 [dasatinib]
Method in brief: as §1

[3] = compound: Cc1ncc(-c2ccnc(Nc3ccc(S(C)(=O)=O)cc3)n2)n1C(C)C
Method in brief: as §1

[4] = compound: Cn1cc(-c2ccc3c(c2)CCN3C(=O)Cc2cccc(C(F)(F)F)c2)c2c(N)ncnc21
Method in brief: as §1

[5] = compound: Cn1cc(-c2ccc3nnc(C(F)(F)c4ccc5ncccc5c4)n3n2)cn1
Method in brief: as §1

tipifarnib = compound: Cn1cncc1[C@@](N)(c1ccc(Cl)cc1)c1ccc2c(c1)c(-c1cccc(Cl)c1)cc(=O)n2C [tipifarnib]
Method in brief: as §1

mubritinib = compound: FC(F)(F)c1ccc(/C=C/c2nc(COc3ccc(CCCCn4ccnn4)cc3)co2)cc1 [mubritinib]
Method in brief: as §1

[6] = compound: NC(=O)Nc1cc(-c2cccc(F)c2)sc1C(=O)N[C@H]1CCCNC1
Method in brief: as §1

[7] = compound: NC(=O)c1cnc(N[C@@H]2CCCC[C@@H]2N)nc1Nc1cccc(-n2nccn2)c1
Method in brief: as §1

[8] = compound: NC1(c2ccc(-c3nc4ccn5c(=O)[nH]nc5c4cc3-c3ccccc3)cc2)CCC1
Method in brief: as §1

[9] = compound: NCC(=O)Nc1ccc(-n2nc(C(F)(F)F)cc2-c2ccc3c(ccc4ccccc43)c2)cc1
Method in brief: as §1

entinostat = compound: Nc1ccccc1NC(=O)c1ccc(CNC(=O)OCc2cccnc2)cc1 [entinostat]
Method in brief: as §1

vorinostat = compound: O=C(CCCCCCC(=O)Nc1ccccc1)NO [vorinostat]
Method in brief: as §1

citarinostat = compound: O=C(CCCCCCNC(=O)c1cnc(N(c2ccccc2)c2ccccc2Cl)nc1)NO [citarinostat]
Method in brief: as §1

silmitasertib = compound: O=C(O)c1ccc2c(c1)nc(Nc1cccc(Cl)c1)c1ccncc12 [silmitasertib]
Method in brief: as §1

[10] = compound: O=C1NC(=O)C(c2cnc3ccccn23)=C1c1cn2c3c(cc(F)cc13)CN(C(=O)N1CCCCC1)CC2
Method in brief: as §1

[11] = compound: c1cc(OCCN2CCCCC2)cc(-c2n[nH]c3ccc(-c4nnc[nH]4)cc23)c1
Method in brief: as §1

Target | log2 fold change (bafetinib) | log2 fold change [1] | log2 fold change (nilotinib) | log2 fold change [2] | log2 fold change (dasatinib) | log2 fold change [3] | log2 fold change [4] | log2 fold change [5] | log2 fold change (tipifarnib) | log2 fold change (mubritinib) | log2 fold change [6] | log2 fold change [7] | log2 fold change [8] | log2 fold change [9] | log2 fold change (entinostat) | log2 fold change (vorinostat) | log2 fold change (citarinostat) | log2 fold change (silmitasertib) | log2 fold change [10] | log2 fold change [11]
MTFP1 (UniProt Q9UDX5) | inactive: -0.079 | inactive: -0.069 | inactive: -0.003 | inactive: -0.015 | inactive: 0.045 | inactive: -0.008 | inactive: 0.039 | inactive: 0.087 | inactive: -0.036 | inactive: 0.017 | inactive: -0.062 | inactive: -0.014 | inactive: 0.011 | inactive: -0.076 | inactive: 0.008 | inactive: -0.095 | inactive: -0.017 | inactive: 0.014 | inactive: -0.032 | inactive: -0.108
MTMR1 (UniProt Q13613) | inactive: 0.006 | inactive: 0.059 | – | – | inactive: -0.014 | – | inactive: 0 | inactive: -0.061 | inactive: -0.1 | inactive: 0.021 | inactive: 0.067 | inactive: -0.139 | inactive: 0.023 | inactive: -0.052 | inactive: 0.067 | inactive: 0.089 | inactive: -0.177 | inactive: 0.011 | inactive: 0.142 | inactive: -0.113
MRPS23 (UniProt Q9Y3D9) | inactive: 0.151 | inactive: 0.184 | inactive: -0.145 | inactive: 0.068 | inactive: -0.107 | inactive: -0.038 | inactive: -0.036 | inactive: 0.021 | inactive: -0.011 | inactive: 0.195 | inactive: 0.03 | inactive: 0.037 | inactive: -0.008 | inactive: 0.057 | inactive: 0.013 | inactive: 0.045 | inactive: 0.016 | inactive: -0.072 | inactive: -0.028 | inactive: -0.081
MYO19 (UniProt Q96H55) | inactive: 0.007 | inactive: -0.068 | inactive: -0.022 | inactive: -0.045 | inactive: -0.111 | inactive: 0.038 | inactive: -0.099 | inactive: -0.069 | inactive: 0.048 | – | – | inactive: -0.112 | – | inactive: 0.051 | – | inactive: 0.029 | – | – | inactive: 0.232 | –
MTCH1 (UniProt Q9NZJ7) | inactive: 0.053 | inactive: 0.024 | inactive: 0.086 | inactive: 0.019 | inactive: 0.118 | inactive: -0.045 | inactive: 0.042 | inactive: -0.029 | inactive: 0.051 | inactive: 0.015 | inactive: -0.016 | inactive: -0.052 | inactive: -0.035 | inactive: 0.009 | inactive: -0.022 | inactive: -0.013 | inactive: 0.028 | inactive: 0.003 | inactive: -0.021 | inactive: -0.031
MYLK (UniProt Q15746) | active: 0.827 | inactive: -0.063 | active: 0.856 | inactive: 0.147 | active: 0.65 | inactive: 0.136 | inactive: -0.107 | inactive: -0.128 | inactive: 0.047 | inactive: 0 | inactive: -0.063 | – | inactive: -0.064 | inactive: -0.21 | inactive: -0.081 | inactive: -0.059 | inactive: -0.089 | inactive: 0.175 | – | inactive: 0.204
MYL3 (UniProt P08590) | inactive: -0.011 | inactive: -0.08 | inactive: -0.078 | inactive: 0.08 | inactive: -0.101 | inactive: 0.092 | inactive: 0 | inactive: 0.018 | inactive: 0.045 | inactive: -0.016 | – | – | inactive: 0.102 | – | – | inactive: 0.016 | inactive: -0.132 | inactive: 0.008 | – | inactive: -0.101
MSL1 (UniProt Q68DK7) | inactive: -0.056 | inactive: 0.172 | inactive: 0.004 | inactive: 0.068 | inactive: 0.014 | inactive: -0.042 | – | inactive: -0.019 | inactive: -0.065 | inactive: 0.148 | inactive: -0.032 | inactive: -0.085 | inactive: -0.024 | inactive: -0.036 | inactive: 0.016 | inactive: 0.104 | inactive: 0.047 | inactive: -0.152 | inactive: -0.153 | inactive: 0.017
MRPS2 (UniProt Q9Y399) | inactive: 0.191 | inactive: 0.175 | inactive: -0.119 | inactive: 0.019 | inactive: -0.026 | inactive: -0.062 | inactive: 0.043 | inactive: 0.035 | inactive: -0.074 | inactive: 0.14 | inactive: 0.105 | inactive: -0.079 | inactive: -0.102 | inactive: 0.062 | inactive: 0.034 | inactive: 0.096 | inactive: 0.001 | inactive: -0.103 | inactive: -0.021 | inactive: -0.01
